# The other results are listed elsewhere or left out.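 The calls were made as follows: active = dose-dependent thermal stabilisation significant by F-test of dose-response against flat model at 10% FDR; inactive = not significant.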
# Chains of the proteins cited; added tags and fusions are not shown. Lines headed by an entry give the natural chain unless they say otherwise; changes in a name come on top.
# UniProt P30405: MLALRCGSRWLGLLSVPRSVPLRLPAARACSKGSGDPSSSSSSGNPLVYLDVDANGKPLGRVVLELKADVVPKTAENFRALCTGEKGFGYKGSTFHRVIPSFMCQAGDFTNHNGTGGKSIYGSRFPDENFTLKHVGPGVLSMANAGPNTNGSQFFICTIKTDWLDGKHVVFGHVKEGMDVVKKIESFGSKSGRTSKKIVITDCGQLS
# UniProt Q9Y2I7: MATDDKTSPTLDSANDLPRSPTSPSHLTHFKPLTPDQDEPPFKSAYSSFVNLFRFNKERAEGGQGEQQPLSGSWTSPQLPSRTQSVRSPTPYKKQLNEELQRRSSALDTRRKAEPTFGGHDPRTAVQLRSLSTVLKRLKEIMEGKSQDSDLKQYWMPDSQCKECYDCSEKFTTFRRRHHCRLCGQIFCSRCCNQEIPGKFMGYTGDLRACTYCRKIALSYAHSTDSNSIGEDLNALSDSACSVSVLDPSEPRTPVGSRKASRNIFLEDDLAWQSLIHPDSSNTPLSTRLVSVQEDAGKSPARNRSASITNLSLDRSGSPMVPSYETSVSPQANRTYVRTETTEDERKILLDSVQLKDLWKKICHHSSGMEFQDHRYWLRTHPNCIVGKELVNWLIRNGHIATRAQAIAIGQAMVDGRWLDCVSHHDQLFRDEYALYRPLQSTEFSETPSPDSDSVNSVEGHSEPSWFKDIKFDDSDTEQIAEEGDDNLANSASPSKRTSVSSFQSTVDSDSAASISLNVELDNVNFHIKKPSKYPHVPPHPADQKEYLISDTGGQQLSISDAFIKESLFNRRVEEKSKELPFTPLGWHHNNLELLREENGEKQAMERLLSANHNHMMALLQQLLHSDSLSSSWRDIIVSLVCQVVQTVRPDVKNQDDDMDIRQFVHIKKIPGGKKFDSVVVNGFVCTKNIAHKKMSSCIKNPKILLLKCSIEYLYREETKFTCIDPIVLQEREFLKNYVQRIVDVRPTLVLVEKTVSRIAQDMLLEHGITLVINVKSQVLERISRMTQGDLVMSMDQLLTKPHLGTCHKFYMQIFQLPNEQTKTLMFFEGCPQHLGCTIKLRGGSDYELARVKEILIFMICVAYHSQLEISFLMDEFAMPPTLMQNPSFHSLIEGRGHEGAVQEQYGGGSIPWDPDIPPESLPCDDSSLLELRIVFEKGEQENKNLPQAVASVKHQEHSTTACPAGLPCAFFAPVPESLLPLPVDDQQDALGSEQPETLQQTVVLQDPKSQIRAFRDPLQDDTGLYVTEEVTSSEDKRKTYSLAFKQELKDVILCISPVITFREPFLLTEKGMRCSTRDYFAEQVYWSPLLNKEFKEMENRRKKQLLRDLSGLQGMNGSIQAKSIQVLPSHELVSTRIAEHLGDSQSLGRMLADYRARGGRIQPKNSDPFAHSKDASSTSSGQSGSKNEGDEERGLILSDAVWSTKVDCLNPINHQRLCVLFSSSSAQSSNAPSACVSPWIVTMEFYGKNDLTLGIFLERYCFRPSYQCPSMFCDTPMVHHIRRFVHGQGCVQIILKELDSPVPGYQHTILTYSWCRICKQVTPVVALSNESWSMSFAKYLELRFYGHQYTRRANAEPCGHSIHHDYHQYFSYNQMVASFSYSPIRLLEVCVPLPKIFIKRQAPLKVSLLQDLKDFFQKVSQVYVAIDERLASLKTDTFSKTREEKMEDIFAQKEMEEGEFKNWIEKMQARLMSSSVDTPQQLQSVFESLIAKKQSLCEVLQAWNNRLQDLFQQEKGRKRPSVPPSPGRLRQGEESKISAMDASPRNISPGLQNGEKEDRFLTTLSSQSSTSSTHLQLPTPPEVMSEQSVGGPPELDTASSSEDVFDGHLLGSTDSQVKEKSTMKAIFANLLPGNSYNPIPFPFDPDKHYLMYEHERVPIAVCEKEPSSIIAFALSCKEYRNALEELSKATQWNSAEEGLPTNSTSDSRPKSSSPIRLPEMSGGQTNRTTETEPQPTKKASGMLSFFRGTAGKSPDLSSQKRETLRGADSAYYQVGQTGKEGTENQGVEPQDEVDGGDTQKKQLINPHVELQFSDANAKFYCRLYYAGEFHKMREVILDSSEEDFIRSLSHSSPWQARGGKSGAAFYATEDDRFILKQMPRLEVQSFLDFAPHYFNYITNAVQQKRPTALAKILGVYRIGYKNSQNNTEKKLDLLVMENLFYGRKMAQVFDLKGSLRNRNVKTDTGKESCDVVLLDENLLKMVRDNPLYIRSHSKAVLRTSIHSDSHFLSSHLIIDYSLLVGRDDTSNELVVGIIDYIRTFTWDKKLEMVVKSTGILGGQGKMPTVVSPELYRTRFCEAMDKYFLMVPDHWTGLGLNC
# UniProt P05423: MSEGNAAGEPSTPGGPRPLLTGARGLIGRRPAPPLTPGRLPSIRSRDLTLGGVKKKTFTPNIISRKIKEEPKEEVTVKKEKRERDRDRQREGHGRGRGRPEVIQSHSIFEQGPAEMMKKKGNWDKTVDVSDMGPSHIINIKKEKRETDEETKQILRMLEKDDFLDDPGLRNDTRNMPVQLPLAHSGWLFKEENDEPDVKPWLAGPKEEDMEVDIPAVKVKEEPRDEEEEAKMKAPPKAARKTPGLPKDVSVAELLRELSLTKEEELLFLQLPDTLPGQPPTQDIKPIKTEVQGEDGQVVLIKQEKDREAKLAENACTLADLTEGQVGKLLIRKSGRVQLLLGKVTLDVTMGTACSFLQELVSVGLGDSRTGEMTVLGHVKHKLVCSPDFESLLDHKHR
# UniProt O00743: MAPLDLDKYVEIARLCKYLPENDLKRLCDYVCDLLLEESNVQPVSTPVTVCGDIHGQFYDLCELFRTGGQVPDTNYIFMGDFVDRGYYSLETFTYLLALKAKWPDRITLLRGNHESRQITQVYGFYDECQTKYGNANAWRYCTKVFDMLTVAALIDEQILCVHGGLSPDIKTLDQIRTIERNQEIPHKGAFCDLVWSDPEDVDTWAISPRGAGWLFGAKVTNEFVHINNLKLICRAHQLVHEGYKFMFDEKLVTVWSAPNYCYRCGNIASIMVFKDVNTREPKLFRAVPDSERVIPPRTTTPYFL
# UniProt Q6EEV4: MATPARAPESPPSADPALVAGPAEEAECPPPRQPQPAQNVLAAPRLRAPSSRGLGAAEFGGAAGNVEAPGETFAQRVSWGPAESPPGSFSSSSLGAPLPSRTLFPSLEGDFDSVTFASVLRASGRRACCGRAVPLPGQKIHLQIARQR
# UniProt Q8TF01: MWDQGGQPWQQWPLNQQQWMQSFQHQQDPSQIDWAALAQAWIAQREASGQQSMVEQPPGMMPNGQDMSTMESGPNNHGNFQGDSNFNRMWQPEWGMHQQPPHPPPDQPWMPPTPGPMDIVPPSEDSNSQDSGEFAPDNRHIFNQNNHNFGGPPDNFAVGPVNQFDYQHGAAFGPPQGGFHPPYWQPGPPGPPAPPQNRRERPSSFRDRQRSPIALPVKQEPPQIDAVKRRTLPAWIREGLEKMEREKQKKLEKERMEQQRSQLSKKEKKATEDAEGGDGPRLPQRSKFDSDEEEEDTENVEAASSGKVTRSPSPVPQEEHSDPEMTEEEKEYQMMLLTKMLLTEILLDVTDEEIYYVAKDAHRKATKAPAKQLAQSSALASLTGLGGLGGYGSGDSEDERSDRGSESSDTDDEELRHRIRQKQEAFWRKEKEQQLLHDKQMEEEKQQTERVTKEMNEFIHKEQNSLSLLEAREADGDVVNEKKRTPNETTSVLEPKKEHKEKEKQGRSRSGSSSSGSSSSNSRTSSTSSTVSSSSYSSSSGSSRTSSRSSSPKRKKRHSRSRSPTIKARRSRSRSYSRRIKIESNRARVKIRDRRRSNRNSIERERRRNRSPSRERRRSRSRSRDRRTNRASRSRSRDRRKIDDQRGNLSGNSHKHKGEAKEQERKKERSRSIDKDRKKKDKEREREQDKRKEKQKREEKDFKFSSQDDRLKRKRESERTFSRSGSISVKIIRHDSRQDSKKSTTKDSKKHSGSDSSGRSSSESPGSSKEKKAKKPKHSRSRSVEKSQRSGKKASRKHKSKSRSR
# UniProt Q8NCC3: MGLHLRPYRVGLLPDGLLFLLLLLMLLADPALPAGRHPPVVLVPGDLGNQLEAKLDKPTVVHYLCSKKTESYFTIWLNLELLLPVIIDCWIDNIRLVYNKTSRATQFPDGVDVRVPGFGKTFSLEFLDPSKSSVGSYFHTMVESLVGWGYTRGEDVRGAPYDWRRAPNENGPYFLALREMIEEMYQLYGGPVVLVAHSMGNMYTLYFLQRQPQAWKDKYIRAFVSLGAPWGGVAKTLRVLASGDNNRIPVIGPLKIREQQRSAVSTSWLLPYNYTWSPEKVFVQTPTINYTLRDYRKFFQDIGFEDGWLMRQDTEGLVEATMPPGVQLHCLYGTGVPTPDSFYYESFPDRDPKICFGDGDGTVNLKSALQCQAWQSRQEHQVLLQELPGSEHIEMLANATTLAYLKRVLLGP
# UniProt Q8WW12: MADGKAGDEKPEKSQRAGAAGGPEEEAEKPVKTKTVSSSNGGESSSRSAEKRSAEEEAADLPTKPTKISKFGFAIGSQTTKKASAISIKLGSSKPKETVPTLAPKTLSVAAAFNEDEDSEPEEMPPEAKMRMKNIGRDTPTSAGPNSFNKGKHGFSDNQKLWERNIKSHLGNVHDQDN
# UniProt Q9H0N5: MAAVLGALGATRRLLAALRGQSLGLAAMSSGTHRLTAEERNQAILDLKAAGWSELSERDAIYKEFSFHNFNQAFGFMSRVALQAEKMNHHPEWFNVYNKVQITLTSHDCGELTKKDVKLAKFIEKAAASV
# UniProt Q96SB3: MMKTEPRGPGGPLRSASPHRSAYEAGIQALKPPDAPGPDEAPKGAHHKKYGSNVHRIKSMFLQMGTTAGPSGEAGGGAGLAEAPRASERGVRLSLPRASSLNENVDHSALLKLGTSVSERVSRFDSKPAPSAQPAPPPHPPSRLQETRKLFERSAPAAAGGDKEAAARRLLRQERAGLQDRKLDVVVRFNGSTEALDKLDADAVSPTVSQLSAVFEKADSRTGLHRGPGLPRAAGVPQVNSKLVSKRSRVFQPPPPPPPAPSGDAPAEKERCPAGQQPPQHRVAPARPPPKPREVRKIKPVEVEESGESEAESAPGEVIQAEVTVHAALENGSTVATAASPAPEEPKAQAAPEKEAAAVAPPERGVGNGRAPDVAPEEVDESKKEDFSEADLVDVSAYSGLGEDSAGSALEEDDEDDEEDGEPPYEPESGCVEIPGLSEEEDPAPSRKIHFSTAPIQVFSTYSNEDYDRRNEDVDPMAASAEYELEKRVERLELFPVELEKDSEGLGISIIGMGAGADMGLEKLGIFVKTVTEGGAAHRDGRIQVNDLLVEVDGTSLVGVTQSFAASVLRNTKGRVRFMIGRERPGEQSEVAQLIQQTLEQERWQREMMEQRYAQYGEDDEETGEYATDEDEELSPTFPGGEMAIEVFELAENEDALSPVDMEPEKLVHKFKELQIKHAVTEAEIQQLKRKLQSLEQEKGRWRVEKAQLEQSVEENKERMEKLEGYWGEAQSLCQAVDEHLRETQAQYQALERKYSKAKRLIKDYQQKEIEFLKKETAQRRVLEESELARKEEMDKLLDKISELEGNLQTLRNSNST
# UniProt Q14738, whole entry: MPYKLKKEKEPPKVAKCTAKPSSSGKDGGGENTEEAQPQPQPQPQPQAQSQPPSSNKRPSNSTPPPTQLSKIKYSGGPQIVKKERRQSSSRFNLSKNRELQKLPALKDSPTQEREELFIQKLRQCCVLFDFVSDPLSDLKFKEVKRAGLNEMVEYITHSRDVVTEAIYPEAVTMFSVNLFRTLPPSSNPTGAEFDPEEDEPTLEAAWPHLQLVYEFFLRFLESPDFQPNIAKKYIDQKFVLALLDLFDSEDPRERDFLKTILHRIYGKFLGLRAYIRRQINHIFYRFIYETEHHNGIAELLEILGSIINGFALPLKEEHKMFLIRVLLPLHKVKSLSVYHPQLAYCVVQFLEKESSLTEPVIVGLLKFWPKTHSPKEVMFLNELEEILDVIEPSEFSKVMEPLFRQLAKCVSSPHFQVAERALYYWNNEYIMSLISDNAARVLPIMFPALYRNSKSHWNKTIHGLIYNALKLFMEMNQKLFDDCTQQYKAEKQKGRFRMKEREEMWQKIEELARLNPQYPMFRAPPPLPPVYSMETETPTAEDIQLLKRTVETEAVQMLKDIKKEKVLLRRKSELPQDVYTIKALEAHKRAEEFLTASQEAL
# UniProt Q8TBX8: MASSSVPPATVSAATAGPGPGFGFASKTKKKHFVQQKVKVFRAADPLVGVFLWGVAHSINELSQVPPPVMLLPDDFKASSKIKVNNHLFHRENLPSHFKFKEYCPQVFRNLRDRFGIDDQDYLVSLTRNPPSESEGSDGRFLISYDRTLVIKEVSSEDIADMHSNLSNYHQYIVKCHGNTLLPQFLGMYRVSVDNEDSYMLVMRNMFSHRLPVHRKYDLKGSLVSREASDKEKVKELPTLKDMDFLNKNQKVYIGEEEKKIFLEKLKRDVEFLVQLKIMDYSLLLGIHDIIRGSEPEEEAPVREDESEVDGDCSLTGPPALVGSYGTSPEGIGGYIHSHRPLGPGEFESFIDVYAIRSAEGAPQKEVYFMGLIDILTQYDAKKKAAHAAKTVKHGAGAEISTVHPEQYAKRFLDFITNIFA
# Compound: Nc1nc2c(ncn2[C@@H]2O[C@H](COP(=O)(O)OP(=O)(O)OP(=O)(O)O)[C@@H](O)[C@H]2O)c(=O)[nH]1
# Assay: dose-dependent thermal stabilisation call (2D-TPP, DLPTP, 10% FDR) (binary (1 = stabilised)); higher = stabilised by the compound
# Details: system: Jurkat gel-filtered lysate; concentration range 1-500 µM
row,Target,dose-dependent thermal stabilisation call
1,POLR3B (UniProt Q9NW08),inactive: 0
2,PPP2R3B (UniProt Q9Y5P8),inactive: 0
3,PPP4R3B (UniProt Q5MIZ7),inactive: 0
4,PPP2R2A (UniProt P63151),inactive: 0
5,PITRM1 (UniProt Q5JRX3),inactive: 0
6,PPP1R21 (UniProt Q6ZMI0),inactive: 0
7,PPIF (UniProt P30405),inactive: 0
8,PFKFB3 (UniProt Q16875),inactive: 0
9,PCYT1A (UniProt P49585),inactive: 0
10,POLR2A (UniProt P24928),active: 1
11,PIKFYVE (UniProt Q9Y2I7),inactive: 0
12,PIP4K2A (UniProt P48426),inactive: 0
13,PLA2G4B (UniProt P0C869),inactive: 0
14,POLR3D (UniProt P05423),inactive: 0
15,PPCS (UniProt Q9HAB8),inactive: 0
16,PPP6C (UniProt O00743),inactive: 0
17,POLR2M (UniProt Q6EEV4),inactive: 0
18,PDXK (UniProt O00764),inactive: 0

row,Target,dose-dependent thermal stabilisation call
1,PGGT1B (UniProt P53609),inactive: 0
2,PNISR (UniProt Q8TF01),inactive: 0
3,PLA2G15 (UniProt Q8NCC3),inactive: 0
4,PIK3R5 (UniProt Q8WYR1),inactive: 0
5,PMM1 (UniProt Q92871),inactive: 0
6,PHF5A (UniProt Q7RTV0),inactive: 0
7,PHC3 (UniProt Q8NDX5),inactive: 0
8,PPM1B (UniProt O75688),inactive: 0
9,PPP1R12A (UniProt O14974),inactive: 0
10,PDE12 (UniProt Q6L8Q7),inactive: 0
11,PCNP (UniProt Q8WW12),inactive: 0
12,PCBD2 (UniProt Q9H0N5),inactive: 0
13,PMM2 (UniProt O15305),inactive: 0
14,PPP1R9B (UniProt Q96SB3),inactive: 0
15,PPP2R5D (UniProt Q14738),active: 1
16,PPWD1 (UniProt Q96BP3),active: 1
17,PEPD (UniProt P12955),inactive: 0
18,PIP4K2C (UniProt Q8TBX8),active: 1

# Shown tab-delimited: entries from further up
row	Target	dose-dependent thermal stabilisation call
4	PIK3R5 (UniProt Q8WYR1)	inactive: 0
5	PMM1 (UniProt Q92871)	inactive: 0
6	PHF5A (UniProt Q7RTV0)	inactive: 0

# From the supplement of paper PMC7666118
